Results deposited as PubChem BioAssay AID602196 (INSERM, 2012)
In all, the deposit lists about 23,000 reagents; below is a part drawn at random. Of all reagents, 455 (2%) were called active. 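Active includes both protection and sensitisation; some change values fall well beyond the stated -50 to +50 range.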 A number with no mark means an inactive call. Not stated in the record: the amount of reagent.

Aim: 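Genes whose knock-down alters cisplatin killing of lung cancer cells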
Cell system: human A549 lung cancer cells
Knock-down reagent: siRNA pair against human genes
Time to read-out: 48 h transfection before cisplatin; time from cisplatin to read-out not stated
Challenge: cisplatin at a dose killing half of control-siRNA cells; exact dose and duration not given
Read-out: 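Shift in cisplatin death relative to control siRNA, from -50 (all cells die) to +50 (no cells die); siRNAs harmful on their own scored 0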
Direction: two-siRNA summed score (-2 to +2): higher = both siRNAs protect from cisplatin killing; -2 means both sensitise; mean protection from cisplatin (shift in death) and protection from cisplatin (shift in death), siRNA C and protection from cisplatin (shift in death), siRNA D: higher = protection from cisplatin killing
Rule for the call: 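Each siRNA scores 0 if harmful alone by LDH or WST-1, otherwise +1 if it reduces and -1 if it increases cisplatin killing; a gene is active when both siRNAs agree (sum +2 or -2)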
Meaning of the calls: active = both siRNAs shift cisplatin killing the same way; inactive = no consistent shift, or siRNA harmful alone

| Gene | two-siRNA summed score (-2 to +2) | mean protection from cisplatin (shift in death) (%) | protection from cisplatin (shift in death), siRNA C (%) | protection from cisplatin (shift in death), siRNA D (%) |
| --- | --- | --- | --- | --- |
| PNPLA8 | 0 | 14.1 | 15.7 | 12.5 |
| LOC197135 | 0 | 31.5 | 55.3 | 7.6 |
| OR2J3 | 1 | 6.8 | 1.8 | 11.8 |
| ITGA2B | 0 | 7.6 | 8.2 | 7.1 |
| H4C8 | 0 | -10.4 | -12.4 | -8.3 |
| FGD1 | -1 | -9.1 | -7.3 | -10.8 |
| APLF | 0 | -5.5 | -3.2 | -7.7 |
| PATZ1 | 0 | 1.8 | -4.6 | 8.2 |
| LRRC74A | 0 | 3.4 | -0.3 | 7.2 |
| CDH17 | 0 | 1.2 | -1.2 | 3.6 |
| TMED6 | 0 | -2.5 | 3 | -7.9 |
| LOC441875 | 0 | 10.6 | 14 | 7.2 |
| AK5 | 2 (active) | 21.3 | 26.4 | 16.2 |
| LOC340501 | 0 | 0 | -8.2 | 8.2 |
| SLC39A1 | 0 | 5.9 | 11.1 | 0.6 |
| KIAA1328 | 0 | 1.7 | 4.9 | -1.4 |
| TXNDC5 | 0 | 10.1 | 2.9 | 17.3 |
| CYP4A11 | 0 | -1.8 | 2.1 | -5.7 |
| CR2 | 1 | 20.7 | 30.3 | 11.1 |
| SH2B2 | 0 | -3.5 | -3.3 | -3.7 |
| FGF6 | 0 | 7.3 | 3.8 | 10.9 |
| C1D | 0 | -1.3 | 5.3 | -8 |
| TRIM51HP | 0 | 11 | 0.6 | 21.5 |
| LOC284387 | 0 | 12.3 | 29.5 | -4.8 |

6 consecutive records already listed, for reference:
| Gene | two-siRNA summed score (-2 to +2) | mean protection from cisplatin (shift in death) (%) | protection from cisplatin (shift in death), siRNA C (%) | protection from cisplatin (shift in death), siRNA D (%) |
| --- | --- | --- | --- | --- |
| TXNDC5 | 0 | 10.1 | 2.9 | 17.3 |
| CYP4A11 | 0 | -1.8 | 2.1 | -5.7 |
| CR2 | 1 | 20.7 | 30.3 | 11.1 |
| SH2B2 | 0 | -3.5 | -3.3 | -3.7 |
| FGF6 | 0 | 7.3 | 3.8 | 10.9 |
| C1D | 0 | -1.3 | 5.3 | -8 |

Additional records follow:
| Gene | two-siRNA summed score (-2 to +2) | mean protection from cisplatin (shift in death) (%) | protection from cisplatin (shift in death), siRNA C (%) | protection from cisplatin (shift in death), siRNA D (%) |
| --- | --- | --- | --- | --- |
| SELENOV | 0 | 25.5 | 31.8 | 19.2 |
| MAST2 | 0 | 14.6 | 42.4 | -13.2 |
| LOC401495 | 0 | 13.1 | 12.8 | 13.3 |
| LOC391491 | 0 | 6.5 | 22.6 | -9.6 |
| ZNF564 | 0 | -0.2 | -1.4 | 1 |
| DEPDC1 | -1 | -1.5 | -18.8 | 15.8 |
| DERL2 | 0 | 18.9 | 35.7 | 2 |
| BTAF1 | 1 | 14.6 | -0.4 | 29.6 |
| KRTCAP2 | 0 | -8.5 | 1.2 | -18.2 |
| KRTAP19-2 | -1 | -3.5 | -17.9 | 11 |
| LOC200731 | 1 | 12.3 | 4.1 | 20.4 |
| NUP62CL | 0 | 14.2 | 7.7 | 20.7 |
| AAR2 | -1 | -27.6 | -32.1 | -23.2 |
| MAPKBP1 | 1 | 3.8 | 10.8 | -3.3 |
| LOC388418 | 0 | 10.1 | 5 | 15.2 |
| PCDHA3 | 0 | 5.1 | -2.3 | 12.5 |
| ZG16 | 0 | 7.8 | 7.6 | 7.9 |
| ASF1B | 0 | 7.6 | 11.6 | 3.5 |
| RAB9A | 0 | 4.6 | 13.4 | -4.2 |
| FBXL17 | 0 | 0.4 | -5.8 | 6.6 |
| LOC442122 (retired record) | 0 | 6.3 | 6.9 | 5.7 |
| MRPS28 | 0 | -10 | -7.6 | -12.4 |
| RFC5 | 0 | 5.5 | 2 | 9.1 |
| OR4D6 | 1 | 13.1 | 9.2 | 16.9 |
| ERLIN2 | 1 | 8.2 | 3 | 13.5 |
| SEC24A | 0 | 1.9 | -3 | 6.8 |
| KLHDC4 | 0 | 1.5 | 0.5 | 2.5 |
| BCORP1 | 1 | 6 | 2.1 | 9.9 |
| LOC399986 | 0 | 8.5 | 18.8 | -1.8 |
| KRT9 | 0 | -5.2 | -5.5 | -4.9 |
| TRMT10B | -1 | -17.4 | -12.6 | -22.2 |
| LOC441408 | 0 | 5.9 | 8.4 | 3.5 |
| OR1J4 | 0 | 1.3 | 0.5 | 2.1 |
| ADAM9 | 0 | -1.8 | -8.3 | 4.8 |
| COPS8-DT | 0 | 8.2 | 12.8 | 3.7 |
| AURKC | 1 | 6.9 | -1.7 | 15.4 |
| POTED | 0 | -0.2 | -4.7 | 4.3 |
| LOC58489 | 0 | 6.1 | 6.1 | 6.2 |
| LOC389663 | 1 | 12.1 | 10.6 | 13.6 |
| LINC00900 | 0 | 3 | 0.4 | 5.6 |
| STK38L | 0 | 1.4 | 3.1 | -0.4 |
| ZNF14 | 0 | 0.9 | -2 | 3.9 |
| DOK6 | 0 | 5 | 16.8 | -6.8 |
| UBA7 | 0 | 10.6 | 8.7 | 12.6 |
| SECISBP2 | -1 | -3.6 | -22.7 | 15.4 |
| LRRC52 | 1 | 17.4 | 12.6 | 22.2 |
| DMPK | -1 | -3 | 11.8 | -17.7 |
| LOC440596 | 0 | 10.6 | 16.7 | 4.5 |
| EIF4ENIF1 | -1 | -10.1 | -22.4 | 2.2 |
